# Data reported in the supplement of paper PMC12067093, “Discovery and optimisation of a covalent ligand for TRIM25 and its application to targeted protein ubiquitination” (Chemical Science, 2025).
# Chains of the proteins cited; added tags and fusions are not shown. Lines headed by an entry give the natural chain unless they say otherwise; changes in a name come on top.
# UniProt O43707, whole entry, looked up: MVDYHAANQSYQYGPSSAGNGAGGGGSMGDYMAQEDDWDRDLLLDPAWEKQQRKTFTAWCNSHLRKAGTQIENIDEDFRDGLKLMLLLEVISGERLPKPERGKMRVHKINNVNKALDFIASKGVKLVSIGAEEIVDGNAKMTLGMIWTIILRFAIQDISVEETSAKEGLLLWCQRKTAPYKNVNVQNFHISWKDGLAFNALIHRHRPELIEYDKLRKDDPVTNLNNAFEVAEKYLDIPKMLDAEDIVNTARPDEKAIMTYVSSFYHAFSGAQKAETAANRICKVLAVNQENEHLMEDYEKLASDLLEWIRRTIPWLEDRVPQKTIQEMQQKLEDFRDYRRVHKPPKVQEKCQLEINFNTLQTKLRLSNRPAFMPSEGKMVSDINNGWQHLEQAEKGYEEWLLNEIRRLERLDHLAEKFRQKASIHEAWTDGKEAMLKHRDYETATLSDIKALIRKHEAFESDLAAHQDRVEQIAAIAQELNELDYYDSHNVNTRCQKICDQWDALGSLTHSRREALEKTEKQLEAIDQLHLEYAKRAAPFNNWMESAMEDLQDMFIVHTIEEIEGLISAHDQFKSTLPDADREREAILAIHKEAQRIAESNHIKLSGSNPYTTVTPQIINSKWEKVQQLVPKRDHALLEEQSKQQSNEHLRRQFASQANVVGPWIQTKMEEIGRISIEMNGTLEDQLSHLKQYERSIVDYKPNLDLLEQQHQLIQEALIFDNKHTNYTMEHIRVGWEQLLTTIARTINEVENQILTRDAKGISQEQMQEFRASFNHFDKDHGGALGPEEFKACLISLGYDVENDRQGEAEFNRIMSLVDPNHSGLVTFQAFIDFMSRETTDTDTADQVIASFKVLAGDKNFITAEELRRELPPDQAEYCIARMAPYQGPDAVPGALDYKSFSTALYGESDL
# UniProt P78536: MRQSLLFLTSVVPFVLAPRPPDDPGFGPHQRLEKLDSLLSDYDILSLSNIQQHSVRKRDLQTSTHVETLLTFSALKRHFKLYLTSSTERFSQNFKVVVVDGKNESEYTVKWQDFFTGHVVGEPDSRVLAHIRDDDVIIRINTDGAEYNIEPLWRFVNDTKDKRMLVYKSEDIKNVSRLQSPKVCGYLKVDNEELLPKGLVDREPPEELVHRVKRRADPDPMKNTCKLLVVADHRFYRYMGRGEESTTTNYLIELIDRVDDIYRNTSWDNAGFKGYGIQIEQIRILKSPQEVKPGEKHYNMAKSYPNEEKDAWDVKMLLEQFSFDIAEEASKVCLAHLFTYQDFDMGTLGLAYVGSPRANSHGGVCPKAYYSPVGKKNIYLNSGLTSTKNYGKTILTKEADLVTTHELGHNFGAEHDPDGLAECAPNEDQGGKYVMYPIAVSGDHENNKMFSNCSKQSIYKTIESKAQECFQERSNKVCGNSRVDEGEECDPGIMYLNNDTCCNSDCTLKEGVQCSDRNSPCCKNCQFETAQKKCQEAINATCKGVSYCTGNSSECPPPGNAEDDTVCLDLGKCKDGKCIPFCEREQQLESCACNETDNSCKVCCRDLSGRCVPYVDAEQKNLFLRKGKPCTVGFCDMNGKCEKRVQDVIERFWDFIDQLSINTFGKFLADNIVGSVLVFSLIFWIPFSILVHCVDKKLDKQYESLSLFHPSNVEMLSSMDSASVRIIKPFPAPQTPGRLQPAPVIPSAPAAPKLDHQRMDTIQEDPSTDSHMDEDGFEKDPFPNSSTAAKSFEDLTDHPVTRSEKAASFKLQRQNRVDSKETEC
# UniProt P30566: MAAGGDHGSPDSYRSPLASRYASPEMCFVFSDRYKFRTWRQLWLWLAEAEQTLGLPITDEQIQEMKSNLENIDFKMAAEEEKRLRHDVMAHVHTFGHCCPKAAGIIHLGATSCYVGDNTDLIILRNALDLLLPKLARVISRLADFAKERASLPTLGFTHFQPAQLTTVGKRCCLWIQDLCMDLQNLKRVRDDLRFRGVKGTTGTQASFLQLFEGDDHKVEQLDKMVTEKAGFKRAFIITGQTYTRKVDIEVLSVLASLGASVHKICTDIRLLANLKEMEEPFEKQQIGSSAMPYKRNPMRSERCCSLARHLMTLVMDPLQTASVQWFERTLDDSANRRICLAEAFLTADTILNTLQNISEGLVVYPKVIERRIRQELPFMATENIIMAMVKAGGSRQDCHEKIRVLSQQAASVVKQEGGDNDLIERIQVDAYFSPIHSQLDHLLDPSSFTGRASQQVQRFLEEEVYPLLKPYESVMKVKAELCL
# UniProt O14672: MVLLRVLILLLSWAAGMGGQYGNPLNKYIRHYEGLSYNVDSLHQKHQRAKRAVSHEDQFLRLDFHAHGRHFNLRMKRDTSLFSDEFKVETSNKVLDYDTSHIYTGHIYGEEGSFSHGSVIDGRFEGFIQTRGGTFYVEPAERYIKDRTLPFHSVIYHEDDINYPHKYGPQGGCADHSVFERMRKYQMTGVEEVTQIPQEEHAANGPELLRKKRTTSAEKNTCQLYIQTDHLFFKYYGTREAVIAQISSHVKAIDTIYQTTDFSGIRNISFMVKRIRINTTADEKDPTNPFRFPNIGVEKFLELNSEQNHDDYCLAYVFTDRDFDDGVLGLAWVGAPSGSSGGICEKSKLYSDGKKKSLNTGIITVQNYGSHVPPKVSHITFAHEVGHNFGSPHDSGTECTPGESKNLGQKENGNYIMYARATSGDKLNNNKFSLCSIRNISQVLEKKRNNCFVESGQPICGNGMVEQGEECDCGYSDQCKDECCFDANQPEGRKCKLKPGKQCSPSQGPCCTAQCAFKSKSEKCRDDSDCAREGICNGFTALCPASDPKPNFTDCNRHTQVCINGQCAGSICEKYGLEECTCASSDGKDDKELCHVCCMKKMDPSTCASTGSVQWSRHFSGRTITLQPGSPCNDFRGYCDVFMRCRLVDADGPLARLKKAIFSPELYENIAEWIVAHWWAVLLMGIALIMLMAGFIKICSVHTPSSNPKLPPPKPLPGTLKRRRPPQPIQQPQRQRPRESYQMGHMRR
# UniProt O60488: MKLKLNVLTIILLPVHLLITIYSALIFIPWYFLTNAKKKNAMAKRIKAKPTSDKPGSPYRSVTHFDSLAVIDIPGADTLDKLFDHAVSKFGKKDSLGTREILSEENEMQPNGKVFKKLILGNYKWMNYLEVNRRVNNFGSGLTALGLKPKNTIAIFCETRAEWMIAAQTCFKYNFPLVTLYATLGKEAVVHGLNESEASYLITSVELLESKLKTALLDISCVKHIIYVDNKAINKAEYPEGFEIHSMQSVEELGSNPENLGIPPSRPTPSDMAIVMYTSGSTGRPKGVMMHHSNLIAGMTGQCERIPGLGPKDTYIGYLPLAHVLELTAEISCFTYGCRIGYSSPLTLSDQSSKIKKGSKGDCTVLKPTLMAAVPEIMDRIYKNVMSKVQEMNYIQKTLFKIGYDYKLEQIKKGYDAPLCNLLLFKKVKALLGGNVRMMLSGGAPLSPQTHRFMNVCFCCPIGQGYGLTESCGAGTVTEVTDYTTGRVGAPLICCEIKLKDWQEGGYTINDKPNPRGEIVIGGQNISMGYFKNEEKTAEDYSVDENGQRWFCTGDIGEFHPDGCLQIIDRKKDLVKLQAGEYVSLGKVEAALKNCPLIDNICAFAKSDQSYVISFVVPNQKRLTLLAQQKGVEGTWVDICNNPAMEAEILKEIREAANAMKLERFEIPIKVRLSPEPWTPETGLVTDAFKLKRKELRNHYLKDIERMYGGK
# UniProt Q9Y4W6: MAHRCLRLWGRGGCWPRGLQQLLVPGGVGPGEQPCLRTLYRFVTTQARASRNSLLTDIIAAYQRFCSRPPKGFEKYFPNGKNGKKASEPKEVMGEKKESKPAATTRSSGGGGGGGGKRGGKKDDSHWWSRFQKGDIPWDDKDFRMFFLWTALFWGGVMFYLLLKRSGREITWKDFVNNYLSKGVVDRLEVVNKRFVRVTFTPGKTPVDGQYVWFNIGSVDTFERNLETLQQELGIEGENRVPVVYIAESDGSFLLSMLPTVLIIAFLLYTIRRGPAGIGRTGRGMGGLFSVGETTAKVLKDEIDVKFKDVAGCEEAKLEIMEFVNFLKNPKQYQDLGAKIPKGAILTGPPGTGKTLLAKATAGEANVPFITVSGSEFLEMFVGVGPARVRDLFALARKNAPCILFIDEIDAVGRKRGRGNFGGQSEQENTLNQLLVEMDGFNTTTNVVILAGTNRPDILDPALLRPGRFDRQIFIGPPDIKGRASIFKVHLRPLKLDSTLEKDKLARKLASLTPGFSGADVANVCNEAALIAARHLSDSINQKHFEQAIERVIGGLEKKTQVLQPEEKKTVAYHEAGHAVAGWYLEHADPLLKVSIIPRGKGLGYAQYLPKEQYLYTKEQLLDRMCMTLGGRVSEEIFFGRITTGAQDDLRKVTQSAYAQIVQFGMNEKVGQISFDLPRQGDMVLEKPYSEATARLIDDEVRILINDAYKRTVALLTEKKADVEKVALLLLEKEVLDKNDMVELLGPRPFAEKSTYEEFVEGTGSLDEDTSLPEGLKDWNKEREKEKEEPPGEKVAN
# UniProt P33121: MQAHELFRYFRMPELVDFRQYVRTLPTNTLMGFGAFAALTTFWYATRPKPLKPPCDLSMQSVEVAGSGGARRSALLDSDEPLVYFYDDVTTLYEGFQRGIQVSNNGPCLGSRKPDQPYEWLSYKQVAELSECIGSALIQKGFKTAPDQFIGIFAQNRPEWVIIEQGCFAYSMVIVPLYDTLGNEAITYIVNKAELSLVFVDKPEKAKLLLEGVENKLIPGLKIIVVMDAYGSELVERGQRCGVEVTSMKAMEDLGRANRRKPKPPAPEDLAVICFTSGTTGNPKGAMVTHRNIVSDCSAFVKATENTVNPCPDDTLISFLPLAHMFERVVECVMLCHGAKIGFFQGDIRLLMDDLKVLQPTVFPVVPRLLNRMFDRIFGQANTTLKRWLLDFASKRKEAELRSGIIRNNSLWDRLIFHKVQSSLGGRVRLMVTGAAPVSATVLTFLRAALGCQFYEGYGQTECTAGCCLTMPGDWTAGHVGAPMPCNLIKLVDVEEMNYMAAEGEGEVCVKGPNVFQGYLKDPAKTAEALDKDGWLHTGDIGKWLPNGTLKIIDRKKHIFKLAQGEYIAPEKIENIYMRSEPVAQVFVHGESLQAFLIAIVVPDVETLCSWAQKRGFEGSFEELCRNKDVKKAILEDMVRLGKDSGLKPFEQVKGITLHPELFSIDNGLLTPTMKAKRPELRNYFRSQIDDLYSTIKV
# UniProt P55263: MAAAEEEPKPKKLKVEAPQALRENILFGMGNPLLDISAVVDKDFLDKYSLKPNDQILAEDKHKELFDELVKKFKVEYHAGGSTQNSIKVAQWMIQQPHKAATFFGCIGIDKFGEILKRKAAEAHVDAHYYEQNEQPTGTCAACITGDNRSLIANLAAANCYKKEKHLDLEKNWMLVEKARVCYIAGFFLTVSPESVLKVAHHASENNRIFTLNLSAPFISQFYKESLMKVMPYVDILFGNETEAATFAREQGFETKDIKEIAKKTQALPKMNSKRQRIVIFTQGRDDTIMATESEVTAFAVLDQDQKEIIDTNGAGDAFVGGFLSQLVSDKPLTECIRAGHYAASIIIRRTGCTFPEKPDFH
# UniProt P30520: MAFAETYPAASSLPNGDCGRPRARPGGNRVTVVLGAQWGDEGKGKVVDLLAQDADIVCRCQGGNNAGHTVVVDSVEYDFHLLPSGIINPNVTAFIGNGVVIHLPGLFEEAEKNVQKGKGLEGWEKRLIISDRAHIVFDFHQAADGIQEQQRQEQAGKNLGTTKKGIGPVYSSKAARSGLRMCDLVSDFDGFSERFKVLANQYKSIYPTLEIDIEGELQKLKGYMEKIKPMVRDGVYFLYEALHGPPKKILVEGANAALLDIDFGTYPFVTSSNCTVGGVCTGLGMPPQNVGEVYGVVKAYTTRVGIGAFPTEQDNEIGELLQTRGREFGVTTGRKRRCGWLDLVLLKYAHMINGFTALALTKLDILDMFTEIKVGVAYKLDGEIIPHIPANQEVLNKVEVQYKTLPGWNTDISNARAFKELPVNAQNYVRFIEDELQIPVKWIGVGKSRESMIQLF
# UniProt Q4G176: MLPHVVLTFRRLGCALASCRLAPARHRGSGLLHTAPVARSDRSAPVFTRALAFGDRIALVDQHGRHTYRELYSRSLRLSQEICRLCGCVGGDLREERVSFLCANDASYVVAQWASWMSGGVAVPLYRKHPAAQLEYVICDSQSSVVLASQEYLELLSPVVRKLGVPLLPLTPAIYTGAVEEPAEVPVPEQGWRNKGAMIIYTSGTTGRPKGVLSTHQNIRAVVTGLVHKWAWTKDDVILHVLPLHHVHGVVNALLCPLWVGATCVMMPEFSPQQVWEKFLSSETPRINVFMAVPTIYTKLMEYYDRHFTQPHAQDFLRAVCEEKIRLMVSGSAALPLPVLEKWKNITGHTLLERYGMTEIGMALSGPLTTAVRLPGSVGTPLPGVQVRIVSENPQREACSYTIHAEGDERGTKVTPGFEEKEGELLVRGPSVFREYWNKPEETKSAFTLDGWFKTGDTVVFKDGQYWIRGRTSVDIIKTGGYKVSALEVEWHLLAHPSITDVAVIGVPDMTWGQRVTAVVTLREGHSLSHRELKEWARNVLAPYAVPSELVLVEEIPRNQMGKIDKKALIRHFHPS
# The list shows a part of the results.
# Compound: CC1Cc2ccccc2N1C(=O)C1CCCN(C1)C(=O)CCl (mixture of isomers) [TRIM25 ligand 11 (diastereomer mixture)]
# Assay: probe-labelled cysteine peptide fold change vs DMSO (competition) (log2 fold change); higher = less target engagement (more negative = stronger competition)
# Details: 10 µM; THP-1; incubation time: 4 h
# 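Also: competitive chemoproteomic profiling in live THP-1 cells with an iodoacetamide desthiobiotin (IA-DTB) probe, comparing probe-labelled peptide intensities in compound-treated cells against DMSO-treated controls.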
row,Target,probe-labelled cysteine peptide fold change
1,AGFG1_P52594_32_CFDCDQR (UniProt P52594),0.119
2,ADAR_P55265_773_WFPAVCAHSK (UniProt P55265),-0.212
3,ACTN4_O43707_793_ACLISLGYDVENDRQGEAEFNR (UniProt O43707),-0.00621
4,ADAM17_P78536_365_ANSHGGVCPK (UniProt P78536),-0.00526
5,ADSL_P30566_180_CCLWIQDLCMDLQNLK (UniProt P30566),0.0708
6,ADAM10_O14672_484_DECCFDANQPEGR (UniProt O14672),0.0781
7,ADH5_P11766_97+100_AGDTVIPLYIPQCGECK (UniProt P11766),0.0312
8,AGBL1_Q96MI9_809_CSLSGEDLNR (UniProt Q96MI9),-0.0554
9,ACSL4_O60488_157_NTIAIFCETR (UniProt O60488),0.484
10,AFG3L2_Q9Y4W6_525_LASLTPGFSGADVANVCNEAALIAAR (UniProt Q9Y4W6),-0.14
11,ACSL1_P33121_311_ATENTVNPCPDDTLISFLPLAHMFER (UniProt P33121),-0.0683
12,ADAM17_P78536_333_VCLAHLFTYQDFDMGTLGLAYVGSPR (UniProt P78536),-0.053
13,ADK_P55263_106_AATFFGCIGIDK (UniProt P55263),-0.0146
14,ACOX3_O15254_426_EACGGHGYLAMNR (UniProt O15254),0.0386
15,ADSS_P30520_182_MCDLVSDFDGFSER (UniProt P30520),0.0814
16,ACSF3_Q4G176_86_LCGCVGGDLREER (UniProt Q4G176),0.162
